Laboratory results as given in paper PMC6004055.
These are yes or no findings as the source states them, for the method shown. Binding seen in cells or lysates may run through a third protein. A result given as binding can be weak or reduced; the word gives no strength.

Biological target: spectrin α (mouse (endogenous in red blood cells))
Test: co-IP; hemoglobin-depleted mouse RBC lysate incubated 1 h at 37°C with anti-spectrin or anti-protein 4.1 antibody, then 1 h at 37°C with protein A/G magnetic beads; 20 mM Tris pH 7.5, 150 mM NaCl, 5 mM MgCl2, 1 mM DTT, 1% Triton X-100; IGG as negative control; Western blot against SART3

- binding: binds
B1: squamous cell carcinoma antigen recognized by T-cells 3 (SART3) (protein, UniProt Q9JLI8 1-962)
chain: MATTAASSASEPEVEPQAGPEAEGEEDEAKPAGVQRKVLSGAVAAEAAEAKGPGWDLQREGASGSDGDEEDAMASSAESSAGEDEWEYDEEEEKNQLEIERLEEQLSINGYDYNCHVELIRLLRLEGELSRVRAARQKMSELFPLTEELWLEWLHDEISMAMDGLDREHVYELFERAVKDYICPNIWLEYGQYSVGGIGQKGGLEKVRSVFERALSSVGLHMTKGLAIWEAYREFESAIVEAARLEKVHSLFRRQLAIPLYEMEATFAEYEEWSEEPMPESVLQSYQKALGQLEKYKPYEEALLQAEAPRLAEYQAYIDFEMKIGDPARIQLIFERALVENCLVPDLWIRYSQYLDRQLKVKDLVLSVHSRAVRNCPWTVALWSRYLLAMERHGLDHQTISATFENALSAGFIQATDYVEIWQVYLDYLRRRVDFRQDSSKELEELRSMFTRALEYLQQEVEERFSESGDPSCLIMQSWARVEARLCNNMQKARELWDSIMTRGNAKYANMWLEYYNLERAHGDTQHCRKALHRAVQCTSDYPEHVCEVLLTMERTEGTLEDWDLAIQKTETRLARVNEQRMKAAEKEAALVQQEEEKAEQRKKVRAEKKALKKKKKTRGADKRREDEDEENEWGEEEEEQPSKRRRTENSLASGEASAMKEETELSGKCLTIDVGPPSKQKEKAASLKRDMPKVAHDSSKDSVTVFVSNLPYSIEEPEVKLRPLFEVCGEVVQIRPIFSNRGDFRGYCYVEFGEEKSAQQALELDRKIVEGRPMFVSPCVDKSKNPDFKVFRYSTTLEKHKLFISGLPFSCTKEELEDICKAHGTVKDLRLVTNRAGKPKGLAYVEYENESQASQAVMKMDGMTIRENVIKVAISNPPQRKVPEKPEVRTAPGAPMLPRQMYGARGKGRTQLSLLPRALQRQGAAPQAENGPAPGPAVAPSVATEAPKMSNADFAKLLLRK
